We go through nine compounds from PubChem BioAssay (NCATS).

As usually defined, the AC50 is the midpoint of the concentration-response curve, whichever way the signal moves.

The nature of test [1]: Validation of Assay for Modulators of Lamin A Splicing (AID 1459). Conditions: Lamin A splicing dual RFP/GFP fluorescence reporter, ratio. The method, boiled down: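 Dual-reporter HeLa S3 line (lamin A-EGFP minigene, DsRed2) treated with compounds 48 hrs, 0.5% DMSO final. Endpoint: EGFP/DsRed2 total intensity ratio from laser-scanning microplate cytometry.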
Test [2] in a line: qHTS Assay for Lipid Storage Modulators (AID 1519). The conditions noted are these: Drosophila S3 cells, BODIPY lipid droplet/cell ratio, laser cytometry, cells loaded with oleic acid. A digest of the protocol:
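Cells seeded at 5,000 per well were treated with compounds over a concentration series and loaded with oleic acid (400 uM, as added). Lipid droplet fluorescence (488 nm excitation, 500-530 nm channel) was read by laser-scanning cytometry and normalized to 20 uM Triacsin C.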

A short description of test [3]: Nrf2 qHTS screen for inhibitors: Validation (AID 493153). The conditions noted are these: A549 ARE-Fluc reporter, 18-24 h; AC50: CellTiter-Fluor fluorescence read, measured here: cytotoxicity CellTiter-Fluor AC50; viability change: measured here: cytotoxicity max response. A digest of the protocol:
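Concentration-response test in A549 ARE_Fluc reporter cells (5% FBS OPTI-MEM), compound exposure 18-24 h at 37°C, 5% CO2. Cell viability measured first by CellTiter-Fluor fluorescence; ARE-driven luciferase luminescence then measured as Nrf2 activity.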
For orientation: Quantitative high-throughput screening tests each substance at several concentrations.

Test [4] is described as follows: qHTS Assay for Inhibitors of PDE-IV (AID 607). The conditions noted are these: HEK293 ACTOne CNG channel cells, membrane potential fluorescence; measured here: parental cell counter-screen. A digest of the protocol:
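ACTOne HEK293 cells carry a modified cAMP-gated CNG channel and express endogenous PDE4; plated 1000 cells/well, compounds up to 22.9 uM final. Membrane-potential dye fluorescence (ex 535/em 590) was read; parental cells received 10 uM forskolin + 100 uM RO 20-1724.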

The nature of test [5]: qHTS Assay for Modulators of Human Peripheral Myelin Protein 22 (PMP22) Expression/Activity (AID 1967). The conditions noted are these: Cell-based PMP22 reporter, dual-color luciferase ratio. A digest of the protocol: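 Engineered MSC80 cells, Pmp22-promoter green and EF-alpha red luciferase reporters; 24h compound treatment at 37 °C. Concentration-response fits on green, red and ratio signals, each overlap-corrected, with %Activity normalized to untreated wells.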

Test [6] can be described thus: qHTS Validation Assay to Find Inhibitors of Chronic Active B-Cell Receptor Signaling (AID 485345). Conditions: ABC-DLBCL cells, chronic BCR signaling reporter. The method, boiled down:
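TMD8 ABC-DLBCL cells stably carrying doxycycline-inducible IkappaBalpha–green luciferase fusion plus unfused red luciferase; compounds 46 uM to 3 nM, 4 h at 37C with doxycycline. Corrected green/red luminescence ratio normalized to 10 uM MG-132 and basal cell wells; curves fitted.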

A short description of test [7]: qHTS drug screen for cell cycle checkpoint inhibitors in PARPi-resistant BRCA-mutant ovarian cancer cell lines. (AID 1963452). The conditions noted are these: PEO1/OlaR viability, CellTiter-Glo luminescence, 96 h. The method, boiled down:
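PEO1, PEO4 and PEO1/OlaR ovarian cancer cells, 600 per well, exposed 96 h at 37C to a dilution series. Viability read by CellTiter-Glo luminescence, normalized to DMSO and empty wells; activity summarized as Z-AUC.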

Test [8] can be described thus: qHTS for identification of novel therapeutic agents for treatment of microphthalmiaassociated transcription factor (MiT) renal cell carcinoma (RCC) (AID 1963991). Conditions: CellTiter-Glo, 48 h, stronger effect = lower value. A digest of the protocol: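 Three TFE3-fusion RCC cell lines (UOK109, UOK124, UOK145), 500 cells/well, were exposed to the 1912-compound MIPE 4.0 library for 48 hours at 37 C. Viability was read by CellTiter-Glo luminescence, normalised to DMSO (100%) and empty wells (0%), with 11-concentration curve fits.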

The mark [9] stands for this setting: measured here: cell count channel max response.
The mark [10] stands for this setting: measured here: cell number channel AC50.
[11] abbreviates: measured here: lipid (BODIPY) channel AC50.
Where [12] appears, read: measured here: lipid channel max response.
Where [13] appears, read: measured here: red reporter channel AC50, EF-alpha promoter control reporter in MSC80 mouse Schwann cells.
Setting [14] is: measured here: green reporter channel AC50, mouse Pmp22 promoter in mouse Schwann cells.
The mark [15] stands for this setting: measured here: CBG/CBR ratio read-out.
Where [16] appears, read: measured here: CBR control luciferase (viability counter).

Structures are written as SMILES. Where “and” joins values, the source holds several entries; their conditions need not be identical. Equal values may be shown once. The list shows a part of the results. Further columns of the screen follow, without active or inactive calls. For some of these results: Most of these compounds were active or inconclusive in the main read-out, so they are no random draw. For some of these results: Potencies come from curve fits of mixed quality, noted in brackets.

Consider `COc1ccc2c(c1)c(CC(=O)O)c(C)n2C(=O)c1ccccc1`, for which the AC50 in test [1] (measured here: GFP channel) was 6.31 µM [falling, single point]; in test [1] (measured here: RFP channel), 6.31 µM [falling, single point]; in test [2] (setting [10]) it was 7.94 µM [falling, full curve, poor fit]; in test [2] (setting [11]), 7.94 µM [falling, full curve, poor fit]. In addition, the max response was -37.3% in test [2] (setting [9]) and -38.8% in test [2] (setting [12]). Further, the viability change in test [3] was found to be 7.26%.

For the compound `c1cnc(N2CCN(Cc3ccc4c(c3)OCO4)CC2)nc1`, the AC50 in test [4] was 5.01 µM [rising, full curve]; in test [1] (measured here: GFP channel) it was 25.1 µM [falling, single point]; in test [1] (measured here: RFP channel), 25.1 µM [falling, single point]; in test [2] (setting [10]), 25.1 µM [rising, partial curve]; in test [2] (setting [11]), 28.2 µM [rising, partial curve]; in test [5] (setting [13]), 26.9 µM [rising, single point]. Also, the max response in test [2] (setting [9]) is 76.9%; in test [2] (setting [12]), 106%.

On to `Nc1nc(Cl)nc2c1ncn2[C@@H]1O[C@H](COP(=O)(O)OP(=O)(O)OP(=O)(O)O)[C@H](O)[C@H]1O`, for which the AC50 in test [1] (measured here: GFP channel) is 28.2 µM [falling, single point]; in test [1] (measured here: RFP channel), 14.1 µM [falling, partial curve]; in test [2] (setting [10]), 3.55 µM [falling, full curve]; in test [2] (setting [11]) it was 3.98 µM [falling, full curve, poor fit]; in test [5] (setting [14]) it was 19 µM [falling, full curve]; in test [5] (setting [13]), 19 µM [falling, full curve]. Moreover, the max response in test [2] (setting [9]) stood at 0.216%; in test [2] (setting [12]) it was 2%.

`COc1ccc(NC(=O)c2ccc(-c3ccc(-c4noc(C)n4)cc3C)cc2)cc1N1CCN(C)CC1`: the AC50 in test [1] (measured here: GFP channel) is 20 µM [falling, single point]; in test [1] (measured here: RFP channel), 15.8 µM [falling, partial curve]; in test [2] (setting [10]), 7.94 µM [falling, full curve, poor fit]; in test [2] (setting [11]), 7.94 µM [falling, full curve, poor fit]; in test [5] (setting [14]), 15.1 µM [falling, full curve]; in test [5] (setting [13]), 16.9 µM [falling, full curve]. Also, the AC50 in test [6] (setting [15]) is 18.4 µM [falling, single point]; in test [6] (setting [16]), 2.31 µM [rising, full curve]. Also, the max response in test [2] (setting [9]) was 23.2% and -76.3%; in test [2] (setting [12]), -24.6% and -86%.

With `O=C1Nc2ccc(I)cc2/C1=C/c1cc(Br)c(O)c(Br)c1`, the AC50 in test [1] (measured here: GFP channel) is 20 µM [falling, single point]; in test [1] (measured here: RFP channel), 14.1 µM [falling, partial curve]; in test [2] (setting [10]), 12.6 µM [rising, partial curve]; in test [2] (setting [11]), 12.6 µM [rising, partial curve]; in test [5] (setting [14]), 47.8 µM [falling, partial curve]; in test [5] (setting [13]) it was 37.9 µM [falling, full curve]. The AC50 in test [6] (setting [16]) was 16.4 µM [falling, single point]; in test [3], 13 µM [falling, single point]; in test [7] (measured here: PEO1 parental viability), 12.3 µM [falling, single point]. Further, the max response in test [2] (setting [9]) is 70.8% and -18.3%; in test [2] (setting [12]), 100% and -16.3%. Further, in test [3], the viability change was -35.7%.

For `Nc1ncnc2c1c(-c1ccc(Oc3ccccc3)cc1)cn2C1CCCC1`, the AC50 in test [1] (measured here: GFP channel) was 10 µM [rising, partial curve]; in test [1] (measured here: RFP channel), 10 µM [rising, partial curve]; in test [2] (setting [11]), 3.55 µM [falling, full curve, poor fit]; in test [5] (setting [14]), 16.9 µM [falling, full curve]; in test [5] (setting [13]), 9.53 µM [falling, full curve]; in test [6] (setting [15]) it was 7.31 µM [falling, partial curve]. The AC50 in test [6] (setting [16]) was 0.231 µM [falling, full curve]. In addition, the max response is -91.2% in test [2] (setting [9]) and -107% in test [2] (setting [12]). In addition, the viability change in test [3] is 2.35%.

Turning to `CCCCCCCC/C=C\CCCCCCCC(=O)NCCc1ccc(O)c(O)c1`, the AC50 in test [1] (measured here: GFP channel) was 10 µM [falling, partial curve]; in test [1] (measured here: RFP channel), 5.62 µM [falling, partial curve]; in test [2] (setting [10]) it was 35.5 µM [falling, partial curve, poor fit]; in test [2] (setting [11]), 35.5 µM [falling, partial curve, poor fit]; in test [5] (setting [14]), 8.49 µM [falling, full curve]; in test [5] (setting [13]), 16.9 µM [falling, full curve]. Moreover, the values for the max response in test [2] (setting [9]) and in test [2] (setting [12]) were -85.5% and -87.1%, respectively.

Regarding `NCCCS(=O)(=O)O`, the AC50 in test [1] (measured here: GFP channel) was 3.98 µM [rising, full curve, poor fit]; in test [1] (measured here: RFP channel) it was 15.8 µM [rising, single point]; in test [2] (setting [10]), 39.8 µM [rising, single point]; in test [2] (setting [11]), 39.8 µM [rising, single point]; in test [5] (setting [13]), 53.6 µM [falling, partial curve]. Further, the results for the max response in test [2] (setting [9]) and in test [2] (setting [12]) were 37.5% and 39.2%, respectively.

As for `NCCCCNCCCN`, the AC50 in test [1] (measured here: GFP channel) was 35.5 µM [falling, single point]; in test [1] (measured here: RFP channel), 35.5 µM [falling, single point]; in test [2] (setting [10]) it was 0.00251 µM [falling, full curve, poor fit]; in test [2] (setting [11]), 0.00224 µM [falling, full curve, poor fit]; in test [5] (setting [14]), 95.3 µM [falling, single point]; in test [5] (setting [13]), 15.1 µM [rising, partial curve]. Also, the AC50 in test [7] (measured here: PEO4 viability) was 24.5 µM [falling, single point]. For the same compound, the max response in test [2] (setting [9]) was -11.7% and -3%; in test [2] (setting [12]), -7.83% and -2.1%. For the same compound, the z-score was determined as 0.25 in test [8] (TFE3-RCC UOK109 viability, measured here: UOK109 Z-AUC); 0.207 in test [8] (TFE3-RCC viability, measured here: UOK124 Z-AUC); 0.569 in test [8] (TFE3-RCC viability, measured here: UOK145 Z-AUC).
